Data reported in the supplement of paper PMC4604168 (melanoma cell lines).
This is one part of the list. Repeats are few or missing, and single values can be far off.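 Imaging used 1,536-well plates; nuclei positive for cleaved PARP by antibody were divided by total DNA-stained nuclei to yield the apoptosis fraction. Doses for screening kept most cells viable, and cell lines differ markedly in resting and induced cleaved-PARP levels.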

How the values were obtained:
Assay in all cases: cleaved PARP positive nuclei fraction relative to DMSO control; melanoma cells; higher = more apoptosis
Details in all cases: library dose: low library concentration; 72 h
501Mel = test system: 501Mel
A101D = test system: A101D
A2058 = test system: A2058
A375 = test system: A375
C32 = test system: C32
CBRC013 = test system: CBRC013 (line from a melanoma biopsy)
CBRC014 = test system: CBRC014 (line from a melanoma biopsy)
CBRC016 = test system: CBRC016 (line from a melanoma biopsy)
CBRC017 = test system: CBRC017 (line from a melanoma biopsy)
CBRC034 = test system: CBRC034 (line from a melanoma biopsy)
COLO792 = test system: COLO792
COLO800 = test system: COLO800
COLO829 = test system: COLO829
G361 = test system: G361
IPC-298 = test system: IPC-298
IST-MEL1 = test system: IST-MEL1
LB2518-MEL = test system: LB2518-MEL
LOXIMVI = test system: LOXIMVI

SMILES	cleaved PARP positive nuclei fraction (501Mel) [%]	cleaved PARP positive nuclei fraction (A101D) [%]	cleaved PARP positive nuclei fraction (A2058) [%]	cleaved PARP positive nuclei fraction (A375) [%]	cleaved PARP positive nuclei fraction (C32) [%]	cleaved PARP positive nuclei fraction (CBRC013) [%]	cleaved PARP positive nuclei fraction (CBRC014) [%]	cleaved PARP positive nuclei fraction (CBRC016) [%]	cleaved PARP positive nuclei fraction (CBRC017) [%]	cleaved PARP positive nuclei fraction (CBRC034) [%]	cleaved PARP positive nuclei fraction (COLO792) [%]	cleaved PARP positive nuclei fraction (COLO800) [%]	cleaved PARP positive nuclei fraction (COLO829) [%]	cleaved PARP positive nuclei fraction (G361) [%]	cleaved PARP positive nuclei fraction (IPC-298) [%]	cleaved PARP positive nuclei fraction (IST-MEL1) [%]	cleaved PARP positive nuclei fraction (LB2518-MEL) [%]	cleaved PARP positive nuclei fraction (LOXIMVI) [%]
O=C(CCCCCCC(=O)Nc1ccccc1)NO [vorinostat] + CCc1ccc(CCOc2ccc(CC3SC(=O)NC3=O)cc2)nc1 [pioglitazone] (first compound 0.08 µM, partner dose 2 µM)	98.4	52.3	186	38	42.4	36	81.9	102	48.9	80.3	108	40.8	45.8	118	31.3	42.5	163	212
C[C@@H]1CCN(C(=O)CC#N)C[C@@H]1N(C)c1ncnc2[nH]ccc12 + CC(C)CCN1c2nc(Nc3cc(F)c(O)c(F)c3)ncc2N(C)C(=O)C1C [BID1870] (first compound 1 µM, partner dose 0.2 µM)	147	234	90.7	50.7	50.4	33	91.2	117	140	48	68.7	510	123	97.2	97	88.3	72.8	56.4
O=C(Nc1cccc(Cl)c1)Nc1ncc(CCNc2ncnc3ccsc23)s1 + O=S(=O)(c1ccccc1)N(CC(F)(F)F)c1ccc(C(O)(C(F)(F)F)C(F)(F)F)cc1 [T0901317] (first compound 0.0008 µM, partner dose 1.4 µM)	83.9	77.6	125	104	112	185	99	74.6	98.3	61.8	35.8	188	102	55.4	133	179	82	110
CC(C)(C)c1cnc(CSc2cnc(NC(=O)C3CCNCC3)s2)o1 + COc1cc(N2CCC(N3CCN(C)CC3)CC2)ccc1Nc1ncc(Cl)c(Nc2ccccc2S(=O)(=O)C(C)C)n1 [NVP-TAE684] (first compound 0.01 µM, partner dose 0.08 µM)	158	57.1	96.1	137	135	139	111	48.3	93.3	104	101	196	156	96.9	87.9	90.1	86.4	33.4
C[C@]1(c2nc3c(C(N)=O)cccc3[nH]2)CCCN1 [Veliparib] + O=C1NC(=O)/C(=C/c2ccc(-c3ccc(F)cc3O)o2)S1 [AS252424] (first compound 1.4 µM, partner dose 1 µM)	110	124	348	92.7	211	88.8	106	60.4	115	74.5	39.7	75	115	216	33.5	76.8	98	40.7
CC1(C)NC(=O)N(c2ccc([N+](=O)[O-])c(C(F)(F)F)c2)C1=O [nilutamide] + CCCCCCCCCCCC1=C(O)C(=O)C=C(O)C1=O [Embelin] (first compound 1 µM, partner dose 1.2 µM)	63.4	56.8	73	74.6	53.2	84.1	107	46	74.5	101	81.2	113	59.6	115	42	42.6	84.1	79.4
C[C@]1(c2nc3c(C(N)=O)cccc3[nH]2)CCCN1 [Veliparib] + O=C(Nc1ccccc1)c1cc([N+](=O)[O-])ccc1Cl [GW9662] (first compound 1.4 µM, partner dose 2 µM)	117	166	99	159	60.5	126	216	56	88.5	183	80.8	91.5	82.3	77.7	62.9	177	184	80.8
C#Cc1cccc(Nc2ncnc3cc(OCCOC)c(OCCOC)cc23)c1 [erlotinib] + COc1cc(N2CCC(N3CCN(C)CC3)CC2)ccc1Nc1ncc(Cl)c(Nc2ccccc2S(=O)(=O)C(C)C)n1 [NVP-TAE684] (first compound 0.8 µM, partner dose 0.08 µM)	102	122	89.3	355	235	141	74.3	50.6	185	83.8	125	103	86	48.3	88.8	41	79.4	69.7
C=CCn1c(=O)c2cnc(Nc3ccc(N4CCN(C)CC4)cc3)nc2n1-c1cccc(C(C)(C)O)n1 + O=C(Nc1ccccc1)c1cc([N+](=O)[O-])ccc1Cl [GW9662] (first compound 0.02 µM, partner dose 2 µM)	74.6	179	154	312	142	457	104	68.9	94.6	143	105	112	69.9	37.4	171	55.9	152	24.1
OCCn1cc(-c2cnc3nnn(Cc4ccc5ncccc5c4)c3n2)cn1 + CC(C)CCN1c2nc(Nc3cc(F)c(O)c(F)c3)ncc2N(C)C(=O)C1C [BID1870] (first compound 1 µM, partner dose 0.2 µM)	77.3	247	28.5	65.3	150	88.8	82.2	85.6	122	77.6	180	32.8	72.5	173	85.1	69.2	78.6	37.6
C[C@]1(c2nc3c(C(N)=O)cccc3[nH]2)CCCN1 [Veliparib] + Oc1nc(-c2ccc(C(F)(F)F)cc2)nc2c1CSCC2 [XAV939] (first compound 1.4 µM, partner dose 2 µM)	174	70.1	244	86.7	69.2	68.1	114	36.2	84.7	46.6	103	128	43.3	120	43.3	97.1	96	42.4
COc1cc(Nc2ncc(F)c(Nc3ccc4c(n3)NC(=O)C(C)(C)O4)n2)cc(OC)c1OC [Tamatinib] + COC(=O)c1sccc1S(=O)(=O)Nc1ccc(Nc2ccccc2)cc1OC [GSK0660] (first compound 0.4 µM, partner dose 1 µM)	83	109	98.8	94.8	122	284	97.7	18.6	100	43.3	205	184	91.1	237	56.6	72.2	86.8	39.7
COc1cc(Nc2ncc(F)c(Nc3ccc4c(n3)NC(=O)C(C)(C)O4)n2)cc(OC)c1OC [Tamatinib] + N#Cc1c(O)c2c(-c3ccc(-c4ccccc4O)cc3)csc2[nH]c1=O [A769662] (first compound 0.4 µM, partner dose 2 µM)	78.6	62.7	189	159	103	128	105	56.7	163	98.2	239	126	62.2	71.5	52.4	121	188	137
Cc1cc(N2CCOCC2)cc2[nH]c(-c3c(NC[C@@H](O)c4cccc(Cl)c4)cc[nH]c3=O)nc12 + Cc1cc([N+](=O)[O-])ccc1NS(=O)(=O)c1cc(Cl)ccc1Cl [FH535] (first compound 0.2 µM, partner dose 1 µM)	103	231	95.1	224	47.2	199	148	157	153	143	60.9	231	122	195	39.1	151	101	74.1
C#Cc1cccc(Nc2ncnc3cc(OCCOC)c(OCCOC)cc23)c1 [erlotinib] + COc1ccc(-c2ccc3c(N4CCOCC4)nc(N4C[C@@H](C)O[C@@H](C)C4)nc3n2)cc1CO [KU0063794] (first compound 0.8 µM, partner dose 0.02 µM)	48.7	128	71.6	118	125	140	115	66.8	212	46	148	174	85.9	186	158	189	86.8	71.1
CO[C@@H]1[C@H](N(C)C(=O)c2ccccc2)C[C@H]2O[C@]1(C)n1c3ccccc3c3c4c(c5c6ccccc6n2c5c31)C(=O)NC4 [Midostaurin] + Cc1cc([N+](=O)[O-])ccc1NS(=O)(=O)c1cc(Cl)ccc1Cl [FH535] (first compound 0.08 µM, partner dose 1 µM)	29.5	295	69.8	89.6	218	324	149	1170	327	211	118	261	206	291	90.8	79.1	403	79.7
CC1(C)NC(=O)N(c2ccc([N+](=O)[O-])c(C(F)(F)F)c2)C1=O [nilutamide] + O=S(=O)(c1ccccc1)N(CC(F)(F)F)c1ccc(C(O)(C(F)(F)F)C(F)(F)F)cc1 [T0901317] (first compound 1 µM, partner dose 1.4 µM)	81.1	124	76.3	407	207	124	115	76	88.2	83.6	76.8	92.3	92.4	83.6	101	39.7	40.8	31.4
Cn1cncc1[C@@](N)(c1ccc(Cl)cc1)c1ccc2c(c1)c(-c1cccc(Cl)c1)cc(=O)n2C [tipifarnib] + CC(C)CCN1c2nc(Nc3cc(F)c(O)c(F)c3)ncc2N(C)C(=O)C1C [BID1870] (first compound 0.01 µM, partner dose 0.2 µM)	121	231	32	626	133	250	126	194	74	88.6	130	124	80.7	114	63.5	174	264	68

Single records, as listed above. Values in the order: cleaved PARP positive nuclei fraction (501Mel) [%] | cleaved PARP positive nuclei fraction (A101D) [%] | cleaved PARP positive nuclei fraction (A2058) [%] | cleaved PARP positive nuclei fraction (A375) [%] | cleaved PARP positive nuclei fraction (C32) [%] | cleaved PARP positive nuclei fraction (CBRC013) [%] | cleaved PARP positive nuclei fraction (CBRC014) [%] | cleaved PARP positive nuclei fraction (CBRC016) [%] | cleaved PARP positive nuclei fraction (CBRC017) [%] | cleaved PARP positive nuclei fraction (CBRC034) [%] | cleaved PARP positive nuclei fraction (COLO792) [%] | cleaved PARP positive nuclei fraction (COLO800) [%] | cleaved PARP positive nuclei fraction (COLO829) [%] | cleaved PARP positive nuclei fraction (G361) [%] | cleaved PARP positive nuclei fraction (IPC-298) [%] | cleaved PARP positive nuclei fraction (IST-MEL1) [%] | cleaved PARP positive nuclei fraction (LB2518-MEL) [%] | cleaved PARP positive nuclei fraction (LOXIMVI) [%]
Cc1cc(N2CCOCC2)cc2[nH]c(-c3c(NC[C@@H](O)c4cccc(Cl)c4)cc[nH]c3=O)nc12 + Cc1cc([N+](=O)[O-])ccc1NS(=O)(=O)c1cc(Cl)ccc1Cl [FH535] (first compound 0.2 µM, partner dose 1 µM) in the list: 103 | 231 | 95.1 | 224 | 47.2 | 199 | 148 | 157 | 153 | 143 | 60.9 | 231 | 122 | 195 | 39.1 | 151 | 101 | 74.1
C[C@]1(c2nc3c(C(N)=O)cccc3[nH]2)CCCN1 [Veliparib] + O=C(Nc1ccccc1)c1cc([N+](=O)[O-])ccc1Cl [GW9662] (first compound 1.4 µM, partner dose 2 µM) in the list: 117 | 166 | 99 | 159 | 60.5 | 126 | 216 | 56 | 88.5 | 183 | 80.8 | 91.5 | 82.3 | 77.7 | 62.9 | 177 | 184 | 80.8
